The source of these data is doi:10.1101/2024.01.10.574961.

Chains of the proteins cited; added tags and fusions are not shown. Lines headed by an entry give the natural chain unless they say otherwise; changes in a name come on top.
UniProt Q9Y7U6: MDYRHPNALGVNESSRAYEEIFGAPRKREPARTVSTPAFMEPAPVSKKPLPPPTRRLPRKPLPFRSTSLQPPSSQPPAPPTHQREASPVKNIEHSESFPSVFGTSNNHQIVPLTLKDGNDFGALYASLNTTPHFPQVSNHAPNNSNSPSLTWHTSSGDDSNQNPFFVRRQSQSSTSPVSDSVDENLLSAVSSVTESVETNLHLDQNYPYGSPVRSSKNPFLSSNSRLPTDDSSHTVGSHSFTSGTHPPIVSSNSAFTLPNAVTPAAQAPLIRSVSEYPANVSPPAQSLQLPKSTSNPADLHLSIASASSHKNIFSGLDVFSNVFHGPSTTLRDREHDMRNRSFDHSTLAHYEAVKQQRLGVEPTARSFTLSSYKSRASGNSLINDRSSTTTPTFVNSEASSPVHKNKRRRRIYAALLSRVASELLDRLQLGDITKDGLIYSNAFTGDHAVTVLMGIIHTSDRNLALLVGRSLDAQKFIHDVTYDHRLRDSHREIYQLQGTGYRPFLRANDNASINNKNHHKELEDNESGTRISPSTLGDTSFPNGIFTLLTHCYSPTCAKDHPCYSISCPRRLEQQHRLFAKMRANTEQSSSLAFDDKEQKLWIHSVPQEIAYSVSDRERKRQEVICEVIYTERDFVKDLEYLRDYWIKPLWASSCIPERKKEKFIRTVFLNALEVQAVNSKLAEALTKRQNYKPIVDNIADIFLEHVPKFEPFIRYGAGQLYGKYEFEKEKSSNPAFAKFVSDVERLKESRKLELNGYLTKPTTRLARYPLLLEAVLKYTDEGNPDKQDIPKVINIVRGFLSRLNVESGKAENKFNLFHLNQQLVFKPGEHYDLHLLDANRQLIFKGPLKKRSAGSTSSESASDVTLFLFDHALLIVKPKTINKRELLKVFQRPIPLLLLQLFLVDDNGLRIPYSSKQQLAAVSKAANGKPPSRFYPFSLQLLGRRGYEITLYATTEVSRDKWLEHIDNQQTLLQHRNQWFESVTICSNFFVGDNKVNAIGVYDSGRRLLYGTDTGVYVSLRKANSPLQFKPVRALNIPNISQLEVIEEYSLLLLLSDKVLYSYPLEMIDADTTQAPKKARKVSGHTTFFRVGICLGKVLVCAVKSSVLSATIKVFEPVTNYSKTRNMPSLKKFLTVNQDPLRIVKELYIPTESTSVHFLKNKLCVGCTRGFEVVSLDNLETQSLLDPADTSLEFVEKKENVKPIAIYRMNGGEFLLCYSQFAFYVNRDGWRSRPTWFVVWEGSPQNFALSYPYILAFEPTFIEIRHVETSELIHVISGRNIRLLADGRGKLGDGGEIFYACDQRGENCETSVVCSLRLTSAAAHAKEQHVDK

Results are given in words; binding and its absence hold for the method and conditions named. Binding seen in cells or lysates may run through a third protein. Binding calls can cover weak binding; strength is not graded here. Sequences can lack the tags named with a protein.

The test has as its target T1, GST-Tea4 (S. pombe) (UniProt O60132).
T1 sequence: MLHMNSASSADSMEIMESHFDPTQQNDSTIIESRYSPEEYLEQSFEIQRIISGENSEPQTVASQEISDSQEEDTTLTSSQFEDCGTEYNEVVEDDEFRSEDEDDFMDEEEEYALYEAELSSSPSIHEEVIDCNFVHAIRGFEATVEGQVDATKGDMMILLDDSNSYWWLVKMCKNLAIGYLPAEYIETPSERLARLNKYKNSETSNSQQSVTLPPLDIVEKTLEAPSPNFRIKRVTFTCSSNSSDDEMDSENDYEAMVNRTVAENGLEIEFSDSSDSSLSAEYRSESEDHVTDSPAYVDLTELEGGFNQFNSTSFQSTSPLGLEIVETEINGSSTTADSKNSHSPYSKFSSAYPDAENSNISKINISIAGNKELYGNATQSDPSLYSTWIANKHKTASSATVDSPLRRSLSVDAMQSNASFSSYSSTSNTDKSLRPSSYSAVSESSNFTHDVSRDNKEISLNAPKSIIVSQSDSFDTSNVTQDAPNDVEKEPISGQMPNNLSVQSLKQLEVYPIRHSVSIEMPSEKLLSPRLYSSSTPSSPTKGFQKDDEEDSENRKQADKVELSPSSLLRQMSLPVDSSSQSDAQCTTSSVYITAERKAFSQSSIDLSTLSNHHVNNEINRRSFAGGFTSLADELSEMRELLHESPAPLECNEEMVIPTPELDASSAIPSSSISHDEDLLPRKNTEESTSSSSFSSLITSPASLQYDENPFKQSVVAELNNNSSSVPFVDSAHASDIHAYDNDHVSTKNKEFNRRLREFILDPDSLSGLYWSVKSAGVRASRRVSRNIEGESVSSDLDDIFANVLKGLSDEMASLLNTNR
In words: pull-down.

In the case of Rgf1ΔPH-GFP (from UniProt Q9Y7U6), the binding result is “binds”.

On to Rgf1ΔPTTR-HA (from UniProt Q9Y7U6), for which the binding entry is listed as “binds”.
